Data as given in PubChem BioAssay AID1259254 (NCATS, 2017).

Test: 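Genome-wide screen for genes that prevent DNA re-replication in cancer cells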 (primary screen)
Cell system: human HCT116 colorectal cancer cells
Reagent: single siRNA against human genes
Time to read-out: 3 days
Measurement: 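Nuclei stained with Hoechst and imaged; cell-cycle phase assigned by DNA content; G2 share scaled per plate, non-targeting siRNA 0%, GMNN siRNA 100%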
Direction: G2 robust z-score and G2 cells, % of GMNN control: higher = more G2 cells, more excess DNA replication
Call rule: 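Active siRNAs have a G2 robust z of 5 or more median absolute deviations over the median, which in these data means about 38% or higher of GMNN control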
In all, the deposit lists about 59,000 reagents; shown is a random part of them. About 1,550 of all reagents (2.6%) were called active. 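G2 share is only a proxy for re-replication; each gene was hit by three separate siRNAs, and active genes were retested.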 A number with no mark means an inactive call. Reagents against one gene are numbered here. Not all columns of the deposit are shown. Not stated in the record: the amount of reagent.

GLB1L3 (galactosidase beta 1 like 3) #1 — G2 robust z-score = -0.143; G2 cells, % of GMNN control = 1.96
GLB1L3 (galactosidase beta 1 like 3) #2 — G2 robust z-score = -0.807; G2 cells, % of GMNN control = -2.71
GLB1L3 (galactosidase beta 1 like 3) #3 — G2 robust z-score = 0.879; G2 cells, % of GMNN control = 9.15
KCNK10 (potassium two pore domain channel subfamily K member 10) #1 — G2 robust z-score = 0.625; G2 cells, % of GMNN control = 7.36
KCNK10 (potassium two pore domain channel subfamily K member 10) #2 — G2 robust z-score = -0.665; G2 cells, % of GMNN control = -1.71
KCNK10 (potassium two pore domain channel subfamily K member 10) #3 — G2 robust z-score = -0.279; G2 cells, % of GMNN control = 1

Ordered by “G2 cells, % of GMNN control” (low to high): 2 of the entries above.
KCNK10 (potassium two pore domain channel subfamily K member 10) #2 — G2 robust z-score = -0.665; G2 cells, % of GMNN control = -1.71
KCNK10 (potassium two pore domain channel subfamily K member 10) #3 — G2 robust z-score = -0.279; G2 cells, % of GMNN control = 1

Additional entries follow.
NAP1L4 (nucleosome assembly protein 1 like 4) #1 — G2 robust z-score = -0.0203; G2 cells, % of GMNN control = 2.82
NAP1L4 (nucleosome assembly protein 1 like 4) #2 — G2 robust z-score = -1.23; G2 cells, % of GMNN control = -5.67
NAP1L4 (nucleosome assembly protein 1 like 4) #3 — G2 robust z-score = -0.811; G2 cells, % of GMNN control = -2.74
LINC00683 (long intergenic non-protein coding RNA 683) #1 — G2 robust z-score = -0.575; G2 cells, % of GMNN control = -1.08
LINC00683 (long intergenic non-protein coding RNA 683) #2 — G2 robust z-score = -0.853; G2 cells, % of GMNN control = -3.03
LINC00683 (long intergenic non-protein coding RNA 683) #3 — G2 robust z-score = -0.619; G2 cells, % of GMNN control = -1.38
